Laboratory results published in article PMC2031890.

Protein sequences, listed by entry. Tags and fused reporters are not part of them. Lines headed by an entry give the natural chain unless they say otherwise; changes in a name come on top.
UniProt Q9NB71: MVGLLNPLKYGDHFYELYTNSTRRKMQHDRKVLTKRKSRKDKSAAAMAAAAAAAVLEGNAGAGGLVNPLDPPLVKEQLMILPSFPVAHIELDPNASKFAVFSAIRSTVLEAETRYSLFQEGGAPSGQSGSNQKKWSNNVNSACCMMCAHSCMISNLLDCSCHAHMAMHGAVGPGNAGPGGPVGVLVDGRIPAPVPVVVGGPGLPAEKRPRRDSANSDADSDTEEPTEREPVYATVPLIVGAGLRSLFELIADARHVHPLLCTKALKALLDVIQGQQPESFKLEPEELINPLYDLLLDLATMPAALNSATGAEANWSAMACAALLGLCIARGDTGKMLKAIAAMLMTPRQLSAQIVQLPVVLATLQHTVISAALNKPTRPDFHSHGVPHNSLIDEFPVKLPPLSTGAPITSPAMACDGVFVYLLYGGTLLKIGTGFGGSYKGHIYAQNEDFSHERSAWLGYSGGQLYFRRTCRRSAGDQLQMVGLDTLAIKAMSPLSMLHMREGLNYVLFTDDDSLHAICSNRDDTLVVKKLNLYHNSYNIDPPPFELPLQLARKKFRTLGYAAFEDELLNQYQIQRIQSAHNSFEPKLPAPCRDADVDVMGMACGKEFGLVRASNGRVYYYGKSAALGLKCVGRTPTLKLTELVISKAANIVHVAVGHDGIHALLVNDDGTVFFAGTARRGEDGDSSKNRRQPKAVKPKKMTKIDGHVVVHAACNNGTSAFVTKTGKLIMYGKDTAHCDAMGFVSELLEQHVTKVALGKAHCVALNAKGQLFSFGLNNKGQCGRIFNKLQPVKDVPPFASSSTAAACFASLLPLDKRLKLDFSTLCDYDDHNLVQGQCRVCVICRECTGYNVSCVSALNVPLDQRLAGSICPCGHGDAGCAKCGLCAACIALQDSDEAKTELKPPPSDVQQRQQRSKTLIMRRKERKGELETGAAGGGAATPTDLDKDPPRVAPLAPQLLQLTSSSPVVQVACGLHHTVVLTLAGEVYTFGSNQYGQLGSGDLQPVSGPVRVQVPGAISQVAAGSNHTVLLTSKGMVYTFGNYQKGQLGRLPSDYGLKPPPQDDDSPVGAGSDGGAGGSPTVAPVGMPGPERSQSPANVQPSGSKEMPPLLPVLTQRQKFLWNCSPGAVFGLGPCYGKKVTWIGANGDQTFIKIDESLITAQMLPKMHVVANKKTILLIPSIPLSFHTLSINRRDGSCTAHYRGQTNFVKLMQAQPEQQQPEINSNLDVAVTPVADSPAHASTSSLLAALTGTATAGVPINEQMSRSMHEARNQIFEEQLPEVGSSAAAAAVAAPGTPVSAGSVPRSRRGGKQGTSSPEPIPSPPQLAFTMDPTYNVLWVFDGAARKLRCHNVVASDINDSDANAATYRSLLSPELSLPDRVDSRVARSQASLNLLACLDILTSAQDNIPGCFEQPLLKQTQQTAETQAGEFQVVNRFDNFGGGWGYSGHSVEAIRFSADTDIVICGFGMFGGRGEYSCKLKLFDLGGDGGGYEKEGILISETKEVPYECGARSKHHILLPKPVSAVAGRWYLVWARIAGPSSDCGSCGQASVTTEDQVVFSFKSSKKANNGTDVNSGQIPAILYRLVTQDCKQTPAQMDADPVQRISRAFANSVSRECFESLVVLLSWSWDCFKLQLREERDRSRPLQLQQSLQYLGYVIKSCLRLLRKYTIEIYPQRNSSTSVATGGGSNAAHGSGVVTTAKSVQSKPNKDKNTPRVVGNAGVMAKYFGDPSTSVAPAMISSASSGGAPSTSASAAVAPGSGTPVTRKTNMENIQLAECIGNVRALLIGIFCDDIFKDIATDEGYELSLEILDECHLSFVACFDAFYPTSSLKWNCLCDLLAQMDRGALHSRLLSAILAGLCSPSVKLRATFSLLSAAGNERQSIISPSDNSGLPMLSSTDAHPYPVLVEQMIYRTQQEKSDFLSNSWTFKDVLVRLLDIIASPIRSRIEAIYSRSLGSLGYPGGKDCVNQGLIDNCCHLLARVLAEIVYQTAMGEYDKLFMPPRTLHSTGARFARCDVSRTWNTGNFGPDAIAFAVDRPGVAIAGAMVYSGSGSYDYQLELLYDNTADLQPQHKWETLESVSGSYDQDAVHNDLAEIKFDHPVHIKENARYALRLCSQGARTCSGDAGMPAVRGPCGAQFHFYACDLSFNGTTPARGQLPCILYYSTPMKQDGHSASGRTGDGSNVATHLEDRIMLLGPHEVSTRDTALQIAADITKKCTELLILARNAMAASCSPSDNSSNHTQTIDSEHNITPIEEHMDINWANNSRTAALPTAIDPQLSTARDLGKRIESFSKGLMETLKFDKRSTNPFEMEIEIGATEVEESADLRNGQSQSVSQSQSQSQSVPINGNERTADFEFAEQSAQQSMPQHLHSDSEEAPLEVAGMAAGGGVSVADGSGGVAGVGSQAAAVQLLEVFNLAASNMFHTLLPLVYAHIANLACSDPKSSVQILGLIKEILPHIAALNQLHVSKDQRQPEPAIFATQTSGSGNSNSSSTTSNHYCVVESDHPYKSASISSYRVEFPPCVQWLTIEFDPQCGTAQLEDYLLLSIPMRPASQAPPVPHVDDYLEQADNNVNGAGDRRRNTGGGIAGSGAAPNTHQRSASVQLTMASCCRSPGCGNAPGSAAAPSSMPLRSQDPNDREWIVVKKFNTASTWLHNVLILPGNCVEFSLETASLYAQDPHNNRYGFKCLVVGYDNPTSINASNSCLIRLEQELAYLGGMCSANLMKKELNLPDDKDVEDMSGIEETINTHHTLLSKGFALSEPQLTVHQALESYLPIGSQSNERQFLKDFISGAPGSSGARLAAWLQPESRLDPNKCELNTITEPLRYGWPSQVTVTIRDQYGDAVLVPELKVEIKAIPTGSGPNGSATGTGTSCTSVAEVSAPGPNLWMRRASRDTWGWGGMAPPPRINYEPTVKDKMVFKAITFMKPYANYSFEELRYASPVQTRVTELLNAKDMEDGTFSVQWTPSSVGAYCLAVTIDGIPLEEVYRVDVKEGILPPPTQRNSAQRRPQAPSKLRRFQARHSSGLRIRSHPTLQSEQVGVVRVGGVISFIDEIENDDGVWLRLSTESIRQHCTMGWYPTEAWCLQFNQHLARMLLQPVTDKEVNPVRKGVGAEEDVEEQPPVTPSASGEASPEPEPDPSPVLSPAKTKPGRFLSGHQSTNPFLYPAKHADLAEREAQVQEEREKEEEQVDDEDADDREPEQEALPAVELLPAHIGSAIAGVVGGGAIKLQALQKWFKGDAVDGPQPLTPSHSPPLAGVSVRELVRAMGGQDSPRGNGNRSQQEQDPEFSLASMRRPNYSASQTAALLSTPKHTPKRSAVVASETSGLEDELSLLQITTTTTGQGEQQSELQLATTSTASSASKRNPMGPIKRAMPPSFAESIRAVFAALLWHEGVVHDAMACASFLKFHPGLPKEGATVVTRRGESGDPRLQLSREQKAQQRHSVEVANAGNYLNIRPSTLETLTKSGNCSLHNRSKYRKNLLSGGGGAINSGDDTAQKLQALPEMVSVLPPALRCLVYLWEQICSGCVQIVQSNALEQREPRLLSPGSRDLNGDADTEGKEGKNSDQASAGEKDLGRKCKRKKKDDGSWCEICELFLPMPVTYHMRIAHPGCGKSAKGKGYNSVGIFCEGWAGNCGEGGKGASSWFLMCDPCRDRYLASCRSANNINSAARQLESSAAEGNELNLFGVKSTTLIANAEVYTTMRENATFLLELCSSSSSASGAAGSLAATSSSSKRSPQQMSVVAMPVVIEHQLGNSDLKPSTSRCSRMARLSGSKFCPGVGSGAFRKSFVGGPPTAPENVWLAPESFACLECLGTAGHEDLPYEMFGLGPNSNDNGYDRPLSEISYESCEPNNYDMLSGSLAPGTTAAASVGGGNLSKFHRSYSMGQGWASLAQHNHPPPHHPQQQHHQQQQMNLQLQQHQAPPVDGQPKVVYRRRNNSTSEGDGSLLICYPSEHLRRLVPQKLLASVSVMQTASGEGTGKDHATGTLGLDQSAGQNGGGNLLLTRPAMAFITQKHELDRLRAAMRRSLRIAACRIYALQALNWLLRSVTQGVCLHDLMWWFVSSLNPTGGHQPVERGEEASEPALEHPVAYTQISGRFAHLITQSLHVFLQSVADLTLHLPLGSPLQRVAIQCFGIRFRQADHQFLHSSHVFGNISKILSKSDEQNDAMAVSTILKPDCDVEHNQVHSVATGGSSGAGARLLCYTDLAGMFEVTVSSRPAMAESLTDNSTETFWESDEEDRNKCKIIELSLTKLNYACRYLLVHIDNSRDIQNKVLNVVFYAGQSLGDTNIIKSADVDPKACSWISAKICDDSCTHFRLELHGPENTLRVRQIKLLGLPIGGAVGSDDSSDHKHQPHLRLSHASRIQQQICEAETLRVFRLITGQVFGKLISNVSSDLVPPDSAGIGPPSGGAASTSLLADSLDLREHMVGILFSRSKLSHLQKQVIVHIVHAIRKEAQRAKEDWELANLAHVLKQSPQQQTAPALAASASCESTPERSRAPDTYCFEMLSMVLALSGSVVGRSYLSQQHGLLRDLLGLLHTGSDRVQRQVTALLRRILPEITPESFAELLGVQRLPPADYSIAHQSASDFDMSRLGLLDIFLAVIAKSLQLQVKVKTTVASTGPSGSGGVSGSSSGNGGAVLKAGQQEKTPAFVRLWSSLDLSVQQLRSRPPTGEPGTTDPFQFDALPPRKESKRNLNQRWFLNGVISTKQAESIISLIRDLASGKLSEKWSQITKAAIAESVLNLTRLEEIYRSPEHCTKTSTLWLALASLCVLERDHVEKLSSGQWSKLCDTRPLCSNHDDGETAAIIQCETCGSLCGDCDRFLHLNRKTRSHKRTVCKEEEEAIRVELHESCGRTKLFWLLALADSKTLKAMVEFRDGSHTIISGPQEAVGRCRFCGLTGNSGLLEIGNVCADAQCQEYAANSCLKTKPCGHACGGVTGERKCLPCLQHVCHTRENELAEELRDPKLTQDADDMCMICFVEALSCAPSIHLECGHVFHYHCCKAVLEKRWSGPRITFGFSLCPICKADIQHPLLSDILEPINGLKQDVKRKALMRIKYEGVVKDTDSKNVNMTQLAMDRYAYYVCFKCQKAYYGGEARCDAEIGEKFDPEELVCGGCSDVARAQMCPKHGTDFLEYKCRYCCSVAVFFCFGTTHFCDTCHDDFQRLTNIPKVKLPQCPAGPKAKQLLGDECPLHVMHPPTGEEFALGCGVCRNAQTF

Target: TAP-tagged HighwireΔRING (Drosophila) (UniProt Q9NB71)
Assay: affinity purification with mass spectrometry; tandem affinity purification of TAP-HiwΔRING from adult fly head homogenate at 4°C (50 mM Tris-HCl pH 7.5, 125 mM NaCl, 0.7% NP40); eluate analysed by SDS-PAGE bands + LC-MS/MS and directly by LC-MS/MS

binding: binds
B1: DFsn (CG4643), endogenous (protein, UniProt Q9V6L9 1-255)
chain: MVDPVAALCNYNVLEVIFSYLELDDLSHCSQVCKSWYHFLNDENSDVWRWHCLNKLPKESLKSDLLASVSTYKTKLRAYFHAWSPNDCSRNVYIKPNGFTLHRNPVAQSTDAARGKIGFRHGRHTWEVIWEGPLGTVAVIGISTKEAALQCHGYVALLGSDDQSWGWNLVENHLLHNGDMQGSYPLLNNAPKYQVGERIRVILDCEDNTLSFEKNYEFLGVAFRGLPDKKLYPTVSAVYGNTEVSMVYLGTPLDG

No constants are given. Whether binding was seen depends on the method and setting. Binding seen in cells or lysates may run through a third protein. These calls come from enrichment with a bait or labelling near it, and not all partners need be listed.
